Experimental data as given in PubChem BioAssay AID1671190 (National Center for Advancing Translational Sciences (NCATS), 2021).
The whole screen tested about 580,000 compounds, of which about 6,100 (1.1%) were called active. Inconclusive results, whose numbers are uncertain, are shown with a selection of clear calls. Calls come from the whole dose curve; as a rule, active = well fitted inhibition curve with a large enough effect; inconclusive = small, poorly fitted or top-dose-only effect, or another doubt; inactive = no such curve, though single readings can be large or run the other way. Potencies of inconclusive entries are doubtful fits and often do not repeat.

Amino acid sequences for entries named in this document (tags omitted). A change or cut given only in a name is not applied to a line headed by its entry.
UniProt P18054: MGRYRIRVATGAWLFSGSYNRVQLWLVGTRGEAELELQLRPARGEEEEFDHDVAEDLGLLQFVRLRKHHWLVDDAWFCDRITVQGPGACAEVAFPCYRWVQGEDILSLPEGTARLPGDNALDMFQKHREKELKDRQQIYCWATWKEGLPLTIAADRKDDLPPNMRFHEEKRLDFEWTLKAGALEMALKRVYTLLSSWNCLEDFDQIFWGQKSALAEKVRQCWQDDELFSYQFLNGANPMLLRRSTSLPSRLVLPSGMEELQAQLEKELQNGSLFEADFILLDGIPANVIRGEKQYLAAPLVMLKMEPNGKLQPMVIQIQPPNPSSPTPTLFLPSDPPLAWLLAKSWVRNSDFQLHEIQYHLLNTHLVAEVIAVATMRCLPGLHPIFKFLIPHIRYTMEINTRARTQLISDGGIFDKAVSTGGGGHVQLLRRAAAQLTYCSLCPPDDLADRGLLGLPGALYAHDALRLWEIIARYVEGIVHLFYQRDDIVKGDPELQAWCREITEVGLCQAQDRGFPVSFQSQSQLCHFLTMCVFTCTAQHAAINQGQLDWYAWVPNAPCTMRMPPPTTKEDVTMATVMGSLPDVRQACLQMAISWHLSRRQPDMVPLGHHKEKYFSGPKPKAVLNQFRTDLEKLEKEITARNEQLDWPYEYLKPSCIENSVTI

Each molecule was assayed against Polyunsaturated fatty acid lipoxygenase ALOX12 (Homo sapiens) (UniProt P18054) (assay: Primary qHTS assay for inhibitors of human arachidonate 12S-lipoxygenase (ALOX12): Round 2). Conditions: purified 12hLO, xylenol orange hydroperoxide absorbance; activity change, negative = inhibition: at 108 µM (top of the series) unless noted.
In short: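 Purified human 12hLO (150 nM final) in 25 mM Hepes, 0.01% Triton X-100, pH 7.0 was preincubated 15 min at room temperature with compound. Then 40 uM arachidonic acid was added, 30 min. Hydroperoxide was read by Fe-XO absorbance ratio 573/405 nm.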
% is set by controls: 0 for no effect and ±100 for the full control effect; potency is the fitted concentration of half-maximal effect.

Row | Compound | Potency | activity change, negative = inhibition
1 | Cc1cc(C)c2c(N)c(C(=O)Nc3ccccc3F)sc2n1 | inactive | –
2 | CCCN(CCC)C1=N/C(=C\c2ccco2)C(=O)N1c1ccccc1 | inconclusive: 39.8 µM [inhibitor, partial curve, poor fit] | –
3 | O=C1NCc2ccccc2CC12CCCN2Cc1cc(O)cc(O)c1 (stereo not given) | inconclusive: 28.2 µM [inhibitor, full curve, poor fit] | –
4 | CCCOc1ccc(C(=O)NNC(=S)NC(=O)c2ccccc2[N+](=O)[O-])cc1 | inconclusive: 31.6 µM [inhibitor, partial curve, poor fit] | –
5 | Cc1nn(CN2CCN(S(=O)(=O)c3ccccc3Cl)CC2)c(=O)c2ccccc12 | inconclusive: 22.4 µM [inhibitor, single point] | –
6 | Cc1nnc(SCc2cc([N+](=O)[O-])cc3c2OCOC3)n(N)c1=O | inactive | –
7 | Fc1ccccc1CNC(=S)NCCc1ccccc1 | inconclusive: 39.8 µM [inhibitor, partial curve, poor fit] | –
8 | COc1ccc(Nc2nc(-c3sc(C)nc3C)cs2)c(OC)c1 | inconclusive: 44.7 µM [inhibitor, partial curve, poor fit] | –
9 | O=C(NNC(=O)c1cccc(S(=O)(=O)N2CCc3ccccc32)c1)c1ccccc1 | inactive | –
10 | CCOc1ccc(-c2c(C#N)c(N)nc3sc(C(=O)c4ccccc4)c(N)c23)cc1 | inactive | –
11 | CCn1cc(C(=O)N2C[C@@H](COC)[C@H](c3nc(C)no3)C2)cn1 | inactive | –
12 | Nc1ccc(S(=O)(=O)c2cc(O)c3ccccc3c2O)cc1 | inconclusive: 17.8 µM [inhibitor, partial curve, poor fit] | –
13 | CCN(CC)C(=O)c1cccc2nc3ccccc3nc12 | inconclusive: 126 µM [inhibitor, partial curve, poor fit] | –
14 | O/C(=C\c1ccc2ccccc2n1)c1ccc(O)cc1O | inconclusive: 79.4 µM [inhibitor, partial curve, poor fit] | –
15 | CN(C)C(=O)c1cccnc1OC1CCN(C(=O)Nc2cc(F)cc(F)c2)C1 (stereo not given) | inactive | –
16 | Cc1ccccc1CC(=O)NCc1cccnc1 | – | inconclusive: -35.7% [inhibitor]
17 | COC(=O)C1C(=O)C(C(=O)c2ccc([N+](=O)[O-])cc2)C(=O)CC1(C)C (stereo not given) | inconclusive: 39.8 µM [inhibitor, partial curve, poor fit] | –
18 | CC(NC(=O)NC(=O)c1cccc(Cl)c1)c1ccccc1 (stereo not given) | inactive | –
19 | Cc1ccc(SCCNC(=S)Nc2ccc(Cl)cc2C)cc1 | inconclusive: 35.5 µM [inhibitor, partial curve, poor fit] | –
20 | CC1CCN(C(=O)COC(=O)c2c[nH]c3ccccc23)CC1 | inactive | –
21 | O=C(Nc1nn(Cc2ccccc2F)cc1Cl)c1nc2ncccn2n1 | inconclusive: 35.5 µM [inhibitor, partial curve, poor fit] | –
22 | COc1ccc(-c2nnn(CC#N)n2)cc1OC | inconclusive: 0.501 µM [inhibitor, full curve, poor fit] | –

Row | Compound | Potency | activity change, negative = inhibition
23 | COc1ccc(NS(=O)(=O)c2cccc(C(=O)Nc3ccccc3C(=O)O)c2)cc1 | inconclusive: 44.7 µM [inhibitor, partial curve, poor fit] | –
24 | O=C(NCc1ccc2c(c1)OCO2)c1ccc(CS(=O)Cc2ccc(Cl)cc2)o1 (stereo not given) | inconclusive: 35.5 µM [inhibitor, partial curve, poor fit] | –
25 | Nc1c(O)cccc1C(=O)O | inconclusive: 25.1 µM [inhibitor, partial curve] | –
26 | COc1cc(/C=N/NC(=O)c2nonc2C)ccc1O | inactive | –
27 | CC(C)c1ccc(-c2nonc2NC(=O)c2cc(=O)c3cc(Cl)ccc3o2)cc1 | inconclusive: 35.5 µM [inhibitor, partial curve, poor fit] | –
28 | COc1ccc2nc(NS(=O)(=O)c3ccc(Cl)cc3)c(NCc3ccc4c(c3)OCO4)nc2c1 | inconclusive: 0.501 µM [inhibitor, full curve, poor fit] | –
29 | O=C1C=C(c2ccc(O)cc2)C[C@@H](c2ccc3c(c2)OCO3)C1 | inconclusive: 39.8 µM [inhibitor, partial curve, poor fit] | –
30 | NC(=O)c1ccsc1NC(=O)COC(=O)c1ccccc1F | inactive | –
31 | NC(=O)c1nsc(C(=O)N(Cc2ccccc2Cl)C(C(=O)NCC2CCCO2)c2ccc(O)cc2)c1N (stereo not given) | inconclusive: 141 µM [inhibitor, partial curve, poor fit] | –
32 | COCCNc1ncnc2ccc(-c3ccoc3)cc12 | inconclusive: 39.8 µM [inhibitor, partial curve, poor fit] | –
33 | CN(Cc1ccccc1F)C(=O)CN1CCN(c2oc(-c3ccco3)nc2C#N)CC1 | inactive | –
34 | CCCS(=O)(=O)N1CCc2ccc(NC(=O)C3CCCO3)cc2C1 (stereo not given) | inconclusive: 44.7 µM [inhibitor, partial curve, poor fit] | –
35 | O=C(CCl)Nc1ccc(Sc2ccc(NC(=O)CCl)cc2)cc1 | inconclusive: 28.2 µM [inhibitor, partial curve, poor fit] | –
36 | CNC(=S)NNc1nc(C)cc(C)n1 | inconclusive: 126 µM [inhibitor, single point] | –
37 | CCC1Nc2ncnc(N3CCN(c4ccccc4)CC3)c2N(Cc2ccc(C)cc2)C1=O (stereo not given) | inconclusive: 22.4 µM [inhibitor, partial curve] | –
38 | Cc1ccc(S(=O)(=O)/N=C/c2cccs2)cc1 | inactive | –
39 | Nc1ccc(Cl)c(S(=O)(=O)Nc2cccc(Cl)c2)c1 | inactive | –
40 | COc1ccc(CNC(=O)Cn2ccc([N+](=O)[O-])n2)cc1OC | inconclusive: 31.6 µM [inhibitor, single point] | –
41 | O=C(Nc1ccc(Oc2ccccc2)cc1)N[C@H]1CO[C@H]2[C@@H]1OC[C@H]2OC(=O)Nc1cccc(C(F)(F)F)c1 | inconclusive: 50.1 µM [inhibitor, partial curve, poor fit] | –
42 | S=c1[nH]nc(-c2cccs2)n1Cc1ccccc1 | inconclusive: 31.6 µM [inhibitor, partial curve, poor fit] | –
43 | O=C(CN1CCSC1=NCc1ccccc1)c1ccc(Cl)c(Cl)c1 | inconclusive: 56.2 µM [inhibitor, partial curve, poor fit] | –
44 | Cc1cccc(-c2cc(C(=O)NCc3ccccn3)c3ccccc3n2)c1 | inactive | –

Entries of single compounds as entered above. Order of values: Potency	activity change, negative = inhibition
COc1cc(/C=N/NC(=O)c2nonc2C)ccc1O is entered as inactive	–
NC(=O)c1ccsc1NC(=O)COC(=O)c1ccccc1F is entered as inactive	–

Some values from the entries so far:
For Potency, Nc1c(O)cccc1C(=O)O has inconclusive: 25.1 µM [inhibitor, partial curve]
For Potency, CN(C)C(=O)c1cccnc1OC1CCN(C(=O)Nc2cc(F)cc(F)c2)C1 (stereo not given) has inactive
For Potency, Cc1ccc(S(=O)(=O)/N=C/c2cccs2)cc1 has inactive

Continuation.

Row | Compound | Potency | activity change, negative = inhibition
45 | CCOC(=O)c1sc(-c2cccc(C(F)(F)F)c2)nc1O | inconclusive: 141 µM [inhibitor, single point] | –
46 | CCc1ccc2oc(C(=O)NCC(c3ccc(OC)cc3)N3CCCCC3)c(C)c2c1 (stereo not given) | inconclusive: 50.1 µM [inhibitor, partial curve, poor fit] | –
47 | CCOc1ccc(-c2cn3c(n2)sc2cc(C(=O)NCCCN4CCCCCC4)ccc23)cc1 | inconclusive: 50.1 µM [inhibitor, partial curve, poor fit] | –
48 | COc1ccc(Nc2nc(C(=O)NCc3ccco3)cs2)cc1 | inconclusive: 141 µM [inhibitor, single point] | –
49 | COc1ccc(S(=O)(=O)Oc2c(OC)cc(C(=S)N3CCOCC3)cc2OC)cc1 | inconclusive: 39.8 µM [inhibitor, single point] | –
50 | CCN(C[C@H]1N[C@@](Cc2ccccc2)(C(=O)OC)[C@H]2C(=O)N(C)C(=O)[C@@H]12)C(=O)Nc1ccc(Cl)cc1 | inconclusive: 79.4 µM [inhibitor, single point] | –
51 | Cc1ccc(-c2cc(N)nc(-c3ccccc3)c2)cc1 | inconclusive: 50.1 µM [inhibitor, partial curve, poor fit] | –
52 | Cc1cc(N2C(=O)CCS2(=O)=O)ccc1S(=O)(=O)NC(C)C | inactive | –
53 | CC(=O)Oc1ccc2nc(-c3ccc(Br)o3)oc(=O)c2c1 | inconclusive: 39.8 µM [inhibitor, full curve, poor fit] | –
54 | N#C/C(=C\c1ccccc1[N+](=O)[O-])C(=O)NC1CCCCC1 | inactive | –
55 | COc1ccc(OC)c(NC(=O)[C@H]2C[C@@H]3CCCN3[C@]23C(=O)Nc2c(Cl)cccc23)c1 | inconclusive: 44.7 µM [inhibitor, partial curve, poor fit] | –
56 | O=C(Oc1cc(-c2ccccc2)no1)c1ccc(F)cc1 | inconclusive: 28.2 µM [inhibitor, partial curve, poor fit] | –
57 | CCN(CC)C(=O)[C@H]1C[C@H](CC(=O)NC/C=C(\C)CCC=C(C)C)C(=O)N2CCc3c([nH]c4ccc(Cl)cc34)[C@]12C | inconclusive: 100 µM [inhibitor, partial curve, poor fit] | –
58 | CCc1nnc2n1N=C(c1cccc([N+](=O)[O-])c1)CS2 | inconclusive: 35.5 µM [inhibitor, partial curve, poor fit] | –
59 | O=C(O)[C@H]1CCCNC1 | inconclusive: 35.5 µM [inhibitor, partial curve, poor fit] | –
60 | Cc1nc2n(c(=O)c1C)CN(Cc1cccnc1)CN2c1ccc(Cl)cc1Cl | inactive | –
61 | COc1ccc(CCN2C(=O)CC(C(N)=O)SC2=Nc2ccccc2)cc1OC (stereo not given) | inactive | –
62 | Cc1sc(NC(=O)CSc2nnc(COc3ccc(Cl)cc3)n2C)c(C#N)c1C | inconclusive: 79.4 µM [inhibitor, single point] | –
63 | CC(=O)c1cccc(NC(=O)c2sc3nc4n(c(=O)c3c2C)CCCC4)c1 | inactive | –
64 | CNc1c(NC(=O)Nc2cccc(Cl)c2)c(=O)oc2ccccc12 | inconclusive: 56.2 µM [inhibitor, partial curve, poor fit] | –
65 | CN1c2ccccc2[C@@]2(CCN=C2N2CCOC2=O)[C@H]1c1cn(C)c2ccccc12 | inconclusive: 79.4 µM [inhibitor, partial curve, poor fit] | –
